3 sequences from PMC10746276 can be followed below.

Protein sequences, listed by entry. Tags and fused reporters are not part of them. Lines headed by an entry give the natural chain unless they say otherwise; changes in a name come on top.
UniProt P69913: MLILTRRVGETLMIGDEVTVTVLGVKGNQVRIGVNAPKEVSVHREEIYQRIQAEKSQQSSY

For series [1], the target named is CsrA-His6 (Escherichia coli) (UniProt P69913). Description: EMSA. The following applies: EMSA: 0.1 nM RNA, 10 mM MgCl2, 100 mM KCl, 32.5 ng yeast RNA, 20 mM DTT, 7.5% glycerol, 4 U SUPERasin, 30 min 37 C (pH not given); recombinant protein; protein details: His6 (C-terminal by name); label: 5'-32P; letters put together from the description.
Series [2] has the same target. As to the kind of experiment: competition with a labelled probe. To be noted: EMSA: 0.1 nM RNA, 10 mM MgCl2, 100 mM KCl, 32.5 ng yeast RNA, 20 mM DTT, 7.5% glycerol, 4 U SUPERasin, 30 min 37 C (pH not given), recombinant protein, protein details: His6 (C-terminal by name), label: 5'-32P, letters put together from the description.

For at least one entry, the source does not settle the construct or the ends of the probe. For part of these data: At least one verdict was read from the data and is not stated in words by the source. A value given as a limit tells only on which side of the number the result lay.

On to “GGGCGGUGGUUAACACUACCGCUUCGUUGUCUGGACAAUCGUUCCUUUGUAAUAGGUCCGAAUCACAAUAAAAGGUUCAAGAAUGAAAUACCGCAUCGCUUUAGCUGUU [yqjC leader GGA2 mutant (GGA to AAA)]”, for which the Kd in series [1] is above 600 nM.

On to “GGGCGGUGGUUAACACUACCGCUUCGUUGUCUGGACAAUCGUUCCUUUGUAAUAGGUCCGAAUCACAAUGGAAGGUUCAAGAAUGAAAUACCGCAUCGCUUUAGCUGUU [yqjC leader WT]”, for which, in series [2] (unlabeled self vs labeled yqjC), the binding result is recorded as “binds”.

Consider “GGGUUUUACGCAAAUGGAGAACGAGAAUGUCUAAUCAG [elaB leader WT]”, for which, in series [2] (unlabeled self vs labeled elaB), the binding result was “binds”.
